According to publication PMC11058053:
These are yes or no findings as the source states them, for the method shown. In cells and extracts the contact can be indirect. A yes stands for co-enrichment or nearness to the bait. Other partners may have been found.

Biological target: T1, neuronatin (not stated (human EndoC-βH1 and rat INS1E cells cultured; the sentence stands in the section on human beta cells)) (UniProt Q16517)
T1 sequence: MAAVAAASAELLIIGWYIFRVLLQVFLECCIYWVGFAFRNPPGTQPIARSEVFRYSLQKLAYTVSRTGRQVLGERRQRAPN
Assay: affinity purification with mass spectrometry; cells processed for immunoprecipitation with antibodies against NNAT (ab27266, Abcam, 1:500), then mass spectrometry; details in the ESM Methods

binding: binds
B1: SPCS1 (protein, UniProt Q9Y6A9 1-169)
chain: MARGGDTGCTGPSETSASGAAAIALPGLEGPATDAQCQTLPLTVLKSRSPSPRSLPPALSCPPPQPAMLEHLSSLPTQMDYKGQKLAEQMFQGIILFSAIVGFIYGYVAEQFGWTVYIVMAGFAFSCLLTLPPWPIYRRHPLKWLPVQESSTDDKKPGERKIKRHAKNN
